According to article PMC8324811:
These are yes or no findings as the source states them, for the method shown. For some of these results: Binding seen in cells or lysates may run through a third protein. Some results given as binding are weak or reduced against the parent protein; the word gives no strength.

Sequences of proteins named here, by UniProt entry; tags and fusion partners are left off.
UniProt Q9Y2Y4: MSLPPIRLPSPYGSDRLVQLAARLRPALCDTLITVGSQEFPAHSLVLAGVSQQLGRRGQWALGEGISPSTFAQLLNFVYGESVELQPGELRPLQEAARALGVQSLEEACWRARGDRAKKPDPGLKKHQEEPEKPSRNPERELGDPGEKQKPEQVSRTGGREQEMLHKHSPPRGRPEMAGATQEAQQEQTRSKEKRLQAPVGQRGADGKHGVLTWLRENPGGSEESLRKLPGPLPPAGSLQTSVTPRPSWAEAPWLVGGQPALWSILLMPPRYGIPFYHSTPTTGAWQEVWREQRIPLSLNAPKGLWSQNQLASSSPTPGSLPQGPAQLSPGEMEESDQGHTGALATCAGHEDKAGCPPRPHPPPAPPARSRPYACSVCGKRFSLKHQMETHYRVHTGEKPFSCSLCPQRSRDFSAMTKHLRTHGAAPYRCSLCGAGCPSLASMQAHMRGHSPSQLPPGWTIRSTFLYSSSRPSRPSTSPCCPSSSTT
UniProt P04150: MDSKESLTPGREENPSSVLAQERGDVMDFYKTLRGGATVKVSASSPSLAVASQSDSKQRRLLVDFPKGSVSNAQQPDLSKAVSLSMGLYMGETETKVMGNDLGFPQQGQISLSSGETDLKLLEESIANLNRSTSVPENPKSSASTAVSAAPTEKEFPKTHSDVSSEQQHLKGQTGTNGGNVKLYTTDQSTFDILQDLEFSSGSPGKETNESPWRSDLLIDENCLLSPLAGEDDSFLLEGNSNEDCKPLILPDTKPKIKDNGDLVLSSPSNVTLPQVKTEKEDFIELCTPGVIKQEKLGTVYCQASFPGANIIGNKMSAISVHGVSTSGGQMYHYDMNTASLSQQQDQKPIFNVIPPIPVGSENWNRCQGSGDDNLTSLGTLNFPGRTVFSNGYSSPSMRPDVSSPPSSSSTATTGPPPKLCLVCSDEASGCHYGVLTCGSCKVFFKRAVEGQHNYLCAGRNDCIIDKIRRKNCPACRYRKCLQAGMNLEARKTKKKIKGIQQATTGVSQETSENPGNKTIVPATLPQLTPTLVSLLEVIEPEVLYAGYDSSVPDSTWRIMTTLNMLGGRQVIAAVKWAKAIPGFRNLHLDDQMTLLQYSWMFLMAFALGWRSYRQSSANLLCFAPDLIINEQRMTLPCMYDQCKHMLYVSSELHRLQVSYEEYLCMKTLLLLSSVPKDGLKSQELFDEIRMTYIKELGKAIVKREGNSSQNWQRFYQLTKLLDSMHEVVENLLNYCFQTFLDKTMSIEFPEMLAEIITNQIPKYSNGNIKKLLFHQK
UniProt P06537: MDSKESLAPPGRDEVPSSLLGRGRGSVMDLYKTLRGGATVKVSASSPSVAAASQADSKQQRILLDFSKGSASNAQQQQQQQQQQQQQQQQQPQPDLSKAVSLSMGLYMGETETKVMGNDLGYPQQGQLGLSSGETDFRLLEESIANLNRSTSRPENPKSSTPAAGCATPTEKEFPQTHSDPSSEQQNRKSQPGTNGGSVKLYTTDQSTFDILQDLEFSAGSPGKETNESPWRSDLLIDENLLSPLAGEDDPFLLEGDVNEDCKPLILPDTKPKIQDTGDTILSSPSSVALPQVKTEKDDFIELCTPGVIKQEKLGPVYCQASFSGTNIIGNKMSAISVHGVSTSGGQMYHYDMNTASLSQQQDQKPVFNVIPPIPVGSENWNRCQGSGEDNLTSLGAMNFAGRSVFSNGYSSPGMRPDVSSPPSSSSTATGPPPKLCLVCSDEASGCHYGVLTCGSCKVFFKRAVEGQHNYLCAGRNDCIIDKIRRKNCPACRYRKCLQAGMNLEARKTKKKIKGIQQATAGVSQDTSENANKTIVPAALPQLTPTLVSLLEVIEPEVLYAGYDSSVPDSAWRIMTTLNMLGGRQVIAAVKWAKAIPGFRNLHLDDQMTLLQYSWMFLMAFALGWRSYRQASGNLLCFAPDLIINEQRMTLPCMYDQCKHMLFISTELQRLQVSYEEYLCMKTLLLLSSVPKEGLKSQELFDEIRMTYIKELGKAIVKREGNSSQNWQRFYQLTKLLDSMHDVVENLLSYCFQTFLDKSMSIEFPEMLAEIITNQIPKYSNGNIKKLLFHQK
UniProt Q9JKD9: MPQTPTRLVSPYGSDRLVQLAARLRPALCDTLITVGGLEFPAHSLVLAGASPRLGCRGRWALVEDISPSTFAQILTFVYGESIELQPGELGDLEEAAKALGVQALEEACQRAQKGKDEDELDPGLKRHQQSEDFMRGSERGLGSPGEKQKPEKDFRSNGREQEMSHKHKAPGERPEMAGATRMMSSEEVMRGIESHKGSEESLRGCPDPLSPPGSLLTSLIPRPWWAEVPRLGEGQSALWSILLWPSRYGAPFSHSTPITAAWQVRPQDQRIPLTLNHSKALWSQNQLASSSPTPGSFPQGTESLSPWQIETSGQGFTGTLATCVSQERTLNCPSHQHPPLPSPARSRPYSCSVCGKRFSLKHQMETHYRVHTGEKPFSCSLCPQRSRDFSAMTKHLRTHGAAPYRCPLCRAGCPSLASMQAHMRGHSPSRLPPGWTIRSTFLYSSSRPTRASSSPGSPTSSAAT

How the values were obtained:
[1] = biological target: flag-ZBTB32 (pMet-Flag-ZBTB32) (UniProt Q9Y2Y4); experiment: co-IP; HEK293T transfected with flag-ZBTB32 and CFP-GRα; vehicle or 1 μM Dex for 2h; IP with anti-Flag M2 beads overnight at 4°C; washes with 150 mM NaCl and 0.5% Triton X-100; blots with anti-GR and anti-Flag
[2] = biological target: human glucocorticoid receptor alpha, MAPPIT bait (pCLG-human GRa) (human) (UniProt P04150); experiment: two-hybrid; MAPPIT array screen in HEK293T cells; GR bait against a prey array (human ORFeome V5.1, 12,000 genes); independent screens without ligand and with ligand (Dex); STAT3-responsive rPAP-Luciferase reporter
[3] = biological target: human glucocorticoid receptor alpha, MAPPIT bait (pCLG-human GRa) (human) (UniProt P04150); experiment: two-hybrid; one-to-one MAPPIT validation in HEK293T cells (3 independent experiments); GR bait cDNA and prey cDNA transfected; vehicle or 1 μM Dex for 24h; Luciferase reporter; empty vector as negative control
[4] = biological target: glucocorticoid receptor, endogenous in mouse adrenal glands (mouse (endogenous in adrenal glands)) (UniProt P06537); experiment: co-IP; adrenal gland lysates (RIPA) of mice injected with PBS or Dex (200 μg, 2h); IP with anti-GR (H300, sc-8992) on Dynabeads; blots with anti-GR (G5) and anti-ZBTB32; control IgG instead of anti-GR

Substance: CFP-GRα (pMet7-CFP-GRa) (from UniProt P04150 1-777)
- binding [1]: binds

Substance: human ZBTB32, MAPPIT prey (pCLG-human ZBTB32) (from UniProt Q9Y2Y4 1-487)
- binding [2]: binds
- binding [3]: binds

Substance: ZBTB32, endogenous in mouse adrenal glands (from UniProt Q9JKD9 1-465)
- binding [4]: binds
